Assay [1] addresses T1, Dpb11-13MYC (S. cerevisiae) (UniProt P47027).
T1 sequence: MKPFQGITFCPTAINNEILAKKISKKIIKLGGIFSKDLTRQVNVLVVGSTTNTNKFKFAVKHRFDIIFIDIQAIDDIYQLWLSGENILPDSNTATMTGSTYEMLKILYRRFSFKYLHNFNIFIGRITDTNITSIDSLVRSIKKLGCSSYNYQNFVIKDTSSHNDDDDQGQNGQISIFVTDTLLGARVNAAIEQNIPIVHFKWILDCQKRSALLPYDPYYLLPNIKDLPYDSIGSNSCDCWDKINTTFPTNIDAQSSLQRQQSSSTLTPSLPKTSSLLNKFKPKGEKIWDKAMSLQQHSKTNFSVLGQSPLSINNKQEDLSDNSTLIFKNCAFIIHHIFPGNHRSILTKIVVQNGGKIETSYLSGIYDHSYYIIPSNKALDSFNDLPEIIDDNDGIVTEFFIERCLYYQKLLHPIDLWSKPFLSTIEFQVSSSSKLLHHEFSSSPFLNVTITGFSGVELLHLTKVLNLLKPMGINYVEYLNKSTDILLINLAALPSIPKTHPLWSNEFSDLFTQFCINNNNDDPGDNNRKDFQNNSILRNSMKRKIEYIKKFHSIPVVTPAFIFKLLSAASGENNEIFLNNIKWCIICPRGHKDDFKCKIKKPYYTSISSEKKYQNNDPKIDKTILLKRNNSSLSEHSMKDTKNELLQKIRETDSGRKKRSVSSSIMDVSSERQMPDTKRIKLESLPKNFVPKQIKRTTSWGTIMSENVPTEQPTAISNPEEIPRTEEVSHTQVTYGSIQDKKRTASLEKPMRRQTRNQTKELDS
The assay is described as follows: co-IP; anti-FLAG (Chk1-3FLAG) or anti-MYC (Dpb11-13MYC) IP from 1 ml clarified crude extract (10 mg/ml) of nocodazole-arrested wild type or rad9^CDK1-9A cells, mock or 20 ug/ml bleocin for 45 min; IgG mock IP as control; western blot.

Assay [2] concerns the target T2, Rad9-9MYC (S. cerevisiae) (UniProt P14737).
T2 sequence: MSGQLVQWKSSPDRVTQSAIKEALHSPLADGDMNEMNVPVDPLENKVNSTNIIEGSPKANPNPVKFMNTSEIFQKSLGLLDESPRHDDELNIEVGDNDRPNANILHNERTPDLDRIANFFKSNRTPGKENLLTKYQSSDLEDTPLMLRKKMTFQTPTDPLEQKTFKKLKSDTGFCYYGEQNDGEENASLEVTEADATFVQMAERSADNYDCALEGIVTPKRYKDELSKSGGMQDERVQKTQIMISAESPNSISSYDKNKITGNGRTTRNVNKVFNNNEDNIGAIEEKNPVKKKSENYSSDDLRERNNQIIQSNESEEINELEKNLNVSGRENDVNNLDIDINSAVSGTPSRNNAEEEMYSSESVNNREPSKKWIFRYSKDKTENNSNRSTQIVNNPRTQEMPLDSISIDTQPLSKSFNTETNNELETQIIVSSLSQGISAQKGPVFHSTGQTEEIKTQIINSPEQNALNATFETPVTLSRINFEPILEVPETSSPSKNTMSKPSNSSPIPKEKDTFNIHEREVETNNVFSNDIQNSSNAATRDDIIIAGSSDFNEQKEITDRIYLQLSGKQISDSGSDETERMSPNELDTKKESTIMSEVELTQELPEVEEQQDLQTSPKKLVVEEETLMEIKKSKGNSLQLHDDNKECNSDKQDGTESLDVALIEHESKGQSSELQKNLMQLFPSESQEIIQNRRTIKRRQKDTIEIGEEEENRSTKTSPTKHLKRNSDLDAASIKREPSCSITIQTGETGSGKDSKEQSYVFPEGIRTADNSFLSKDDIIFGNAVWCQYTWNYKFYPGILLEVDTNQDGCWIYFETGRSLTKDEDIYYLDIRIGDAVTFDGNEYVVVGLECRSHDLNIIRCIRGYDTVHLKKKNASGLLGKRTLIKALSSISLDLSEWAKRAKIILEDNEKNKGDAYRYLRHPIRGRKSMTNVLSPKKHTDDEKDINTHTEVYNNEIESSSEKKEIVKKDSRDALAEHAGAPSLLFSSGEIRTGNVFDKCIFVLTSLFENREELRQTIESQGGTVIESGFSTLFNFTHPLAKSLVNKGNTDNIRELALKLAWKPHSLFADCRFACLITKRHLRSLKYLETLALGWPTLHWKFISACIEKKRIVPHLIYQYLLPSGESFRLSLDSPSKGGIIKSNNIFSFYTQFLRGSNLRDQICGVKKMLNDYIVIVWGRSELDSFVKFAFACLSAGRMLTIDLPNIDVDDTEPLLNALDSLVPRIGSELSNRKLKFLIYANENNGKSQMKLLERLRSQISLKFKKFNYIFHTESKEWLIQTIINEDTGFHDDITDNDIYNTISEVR
The assay is described as follows: co-IP; anti-MYC IP of Rad9-9MYC from extract of nocodazole-arrested cells expressing Rad9-9MYC and Chk1-3FLAG, 20 ug/ml bleocin for 45 min; IgG mock control; western blot. For orientation: Immunoblotting shows a protein as a band on a membrane.

Assay [3] deals with T2, Rad9-9MYC (S. cerevisiae). The assay is described as follows: co-IP; Rad9-9MYC immunoprecipitated (anti-MYC) from bleocin-treated nocodazole-arrested cells; beads washed and incubated with ATP, ATP-gammaS or no nucleotide; beads and elution blotted.

No constants are given. Whether binding was seen depends on the method and setting. Binding seen in cells or lysates may run through a third protein. Some results given as binding are weak or reduced against the parent protein; the word gives no strength. Tags and fused reporters may be left off the sequences shown.

B1: Chk1-3FLAG (protein, UniProt P38147 1-527)
chain: MSLSQVSPLPHIKDVVLGDTVGQGAFACVKNAHLQMDPSIILAVKFIHVPTCKKMGLSDKDITKEVVLQSKCSKHPNVLRLIDCNVSKEYMWIILEMADGGDLFDKIEPDVGVDSDVAQFYFQQLVSAINYLHVECGVAHRDIKPENILLDKNGNLKLADFGLASQFRRKDGTLRVSMDQRGSPPYMAPEVLYSEEGYYADRTDIWSIGILLFVLLTGQTPWELPSLENEDFVFFIENDGNLNWGPWSKIEFTHLNLLRKILQPDPNKRVTLKALKLHPWVLRRASFSGDDGLCNDPELLAKKLFSHLKVSLSNENYLKFTQDTNSNNRYISTQPIGNELAELEHDSMHFQTVSNTQRAFTSYDSNTNYNSGTGMTQEAKWTQFISYDIAALQFHSDENDCNELVKRHLQFNPNKLTKFYTLQPMDVLLPILEKALNLSQIRVKPDLFANFERLCELLGYDNVFPLIINIKTKSNGGYQLCGSISIIKIEEELKSVGFERKTGDPLEWRRLFKKISTICRDIILIPN
Regarding B1, the binding entry is on record as “no binding” in assay [1], “binds” in assay [2] and “binds” in assay [3].

The record behind these values is paper PMC3616908.
